Source: ChEMBL document CHEMBL4316593 (Eur J Med Chem, 2019)
The source gives many values for each of these; only a part stands here.

Experiments:
Type in all cases: cell-based
Details in all cases: U-87MG ATCC
[1] = Inhibition of RTK/PI3K/AKT/mTOR signaling in human U87 cells assessed as down regulation of SH3RF2 gene expression at cytotoxic IC50 measured after 48 hrs relative to control
[2] = Inhibition of RTK/PI3K/AKT/mTOR signaling in human U87 cells assessed as down regulation of MAP1A gene expression at cytotoxic IC50 measured after 48 hrs relative to control
[3] = Inhibition of RTK/PI3K/AKT/mTOR signaling in human U87 cells assessed as down regulation of PCNA gene expression at cytotoxic IC50 measured after 48 hrs relative to control
[4] = Inhibition of RTK/PI3K/AKT/mTOR signaling in human U87 cells assessed as down regulation of ZNF503 gene expression at cytotoxic IC50 measured after 48 hrs relative to control
[5] = Inhibition of RTK/PI3K/AKT/mTOR signaling in human U87 cells assessed as down regulation of ARMCX5 gene expression at cytotoxic IC50 measured after 48 hrs relative to control
[6] = Inhibition of RTK/PI3K/AKT/mTOR signaling in human U87 cells assessed as down regulation of LIG4 gene expression at cytotoxic IC50 measured after 48 hrs relative to control
[7] = Inhibition of RTK/PI3K/AKT/mTOR signaling in human U87 cells assessed as down regulation of ZNF28 gene expression at cytotoxic IC50 measured after 48 hrs relative to control
[8] = Inhibition of RTK/PI3K/AKT/mTOR signaling in human U87 cells assessed as down regulation of TPM1 gene expression at cytotoxic IC50 measured after 48 hrs relative to control
[9] = Inhibition of RTK/PI3K/AKT/mTOR signaling in human U87 cells assessed as down regulation of SULF2 gene expression at cytotoxic IC50 measured after 48 hrs relative to control
[10] = Inhibition of RTK/PI3K/AKT/mTOR signaling in human U87 cells assessed as down regulation of FBXO8 gene expression at cytotoxic IC50 measured after 48 hrs relative to control
[11] = Inhibition of RTK/PI3K/AKT/mTOR signaling in human U87 cells assessed as down regulation of SLC37A1 gene expression at cytotoxic IC50 measured after 48 hrs relative to control
[12] = Inhibition of RTK/PI3K/AKT/mTOR signaling in human U87 cells assessed as down regulation of KATNA1 gene expression at cytotoxic IC50 measured after 48 hrs relative to control
[13] = Inhibition of RTK/PI3K/AKT/mTOR signaling in human U87 cells assessed as down regulation of BCAS2 gene expression at cytotoxic IC50 measured after 48 hrs relative to control
[14] = Inhibition of RTK/PI3K/AKT/mTOR signaling in human U87 cells assessed as down regulation of NFATC3 gene expression at cytotoxic IC50 measured after 48 hrs relative to control
[15] = Inhibition of RTK/PI3K/AKT/mTOR signaling in human U87 cells assessed as down regulation of PSMD4 gene expression at cytotoxic IC50 measured after 48 hrs relative to control
[16] = Inhibition of RTK/PI3K/AKT/mTOR signaling in human U87 cells assessed as down regulation of MAPK1 gene expression at cytotoxic IC50 measured after 48 hrs relative to control
[17] = Inhibition of RTK/PI3K/AKT/mTOR signaling in human U87 cells assessed as down regulation of DDX49 gene expression at cytotoxic IC50 measured after 48 hrs relative to control
[18] = Inhibition of RTK/PI3K/AKT/mTOR signaling in human U87 cells assessed as down regulation of GNAI2 gene expression at cytotoxic IC50 measured after 48 hrs relative to control
[19] = Inhibition of RTK/PI3K/AKT/mTOR signaling in human U87 cells assessed as down regulation of AP2B1 gene expression at cytotoxic IC50 measured after 48 hrs relative to control
[20] = Inhibition of RTK/PI3K/AKT/mTOR signaling in human U87 cells assessed as down regulation of ILF2 gene expression at cytotoxic IC50 measured after 48 hrs relative to control
[21] = Inhibition of RTK/PI3K/AKT/mTOR signaling in human U87 cells assessed as down regulation of COTL1 gene expression at cytotoxic IC50 measured after 48 hrs relative to control
[22] = Inhibition of RTK/PI3K/AKT/mTOR signaling in human U87 cells assessed as up regulation of SLC2A3 gene expression at cytotoxic IC50 measured after 48 hrs relative to control
[23] = Inhibition of RTK/PI3K/AKT/mTOR signaling in human U87 cells assessed as up regulation of C1QL4 gene expression at cytotoxic IC50 measured after 48 hrs relative to control
[24] = Inhibition of RTK/PI3K/AKT/mTOR signaling in human U87 cells assessed as up regulation of ENO1 gene expression at cytotoxic IC50 measured after 48 hrs relative to control
[25] = Inhibition of RTK/PI3K/AKT/mTOR signaling in human U87 cells assessed as up regulation of C1orf21 gene expression at cytotoxic IC50 measured after 48 hrs relative to control
[26] = Inhibition of RTK/PI3K/AKT/mTOR signaling in human U87 cells assessed as up regulation of Fanconi anemia complementation group C gene expression at cytotoxic IC50 measured after 48 hrs relative to control
[27] = Inhibition of RTK/PI3K/AKT/mTOR signaling in human U87 cells assessed as up regulation of jade family PHD finger 2 gene expression at cytotoxic IC50 measured after 48 hrs relative to control
[28] = Inhibition of RTK/PI3K/AKT/mTOR signaling in human U87 cells assessed as up regulation of membrane palmitoylated protein 6 gene expression at cytotoxic IC50 measured after 48 hrs relative to control
[29] = Inhibition of RTK/PI3K/AKT/mTOR signaling in human U87 cells assessed as up regulation of calcineurin like phosphoesterase domain containing 1 gene expression at cytotoxic IC50 measured after 48 hrs relative to control
[30] = Inhibition of RTK/PI3K/AKT/mTOR signaling in human U87 cells assessed as up regulation of CD44 molecule (Indian blood group) gene expression at cytotoxic IC50 measured after 48 hrs relative to control
[31] = Inhibition of RTK/PI3K/AKT/mTOR signaling in human U87 cells assessed as up regulation of zinc finger protein 76 gene expression at cytotoxic IC50 measured after 48 hrs relative to control
[32] = Inhibition of RTK/PI3K/AKT/mTOR signaling in human U87 cells assessed as up regulation of TMED7 gene expression at cytotoxic IC50 measured after 48 hrs relative to control

## CC(=O)C(=NNc1ccccc1C#N)C(C)=O
[1]
  log2FC: -2.05
[2]
  log2FC: -2
[3]
  log2FC: -1.42
[4]
  log2FC: -1.36
[5]
  log2FC: -1.31
[6]
  log2FC: -1.22
[7]
  log2FC: -0.975
[8]
  log2FC: -0.964
[9]
  log2FC: -0.909
[10]
  log2FC: -0.908
[11]
  log2FC: -0.907
[12]
  log2FC: -0.869
[13]
  log2FC: -0.829
[14]
  log2FC: -0.785
[15]
  log2FC: -0.697
[16]
  log2FC: -0.5
[17]
  log2FC: -0.669
[18]
  log2FC: -0.597
[19]
  log2FC: -0.573
[20]
  log2FC: -0.467
[21]
  log2FC: -0.401
[22]
  log2FC: 3.09
[23]
  log2FC: 3.05
[24]
  log2FC: 1.91
[25]
  log2FC: 1.71
[26]
  log2FC: 1.18
[27]
  log2FC: 1.12
[28]
  log2FC: 1.07
[29]
  log2FC: 1
[30]
  log2FC: 0.887
[31]
  log2FC: 0.823
[32]
  log2FC: 0.545
